For this series, the system named is NSCs. Kind of series: Penetration of FITC-labeled PEP1 into NSCs. Type of series: cell-based, rat.

With “EARPALLTSRLRFIPK (homo sapiens) [PEP1, hTERT-derived peptide consisting of 16 amino acids, telomerase location [611-626]]”, the intracellular localization result (10 μM FITC-labeled PEP1, normal environment) was “usually localized in the cytoplasm and the mitochondria”. In addition, the “PEP1 level in the cells” value (FITC-labeled PEP1, 0 to 24 hours) was “time-dependently increased”. The “intracellular localization in damaged NSCs” value (NSCs damaged by 20 μM Aβ25-35) was “some of the PEP1 penetrated into the nucleus”.
